## Primary screen of a compound library

Source: ChEMBL document CHEMBL3988442, “University of Dundee, Small-Polar-MMV Screening Library” (2021).

The filed quantity is “Percent Effect” (%). The controls that fix the scale are not given in the record; negative values are as filed. Compounds were drawn at random from those tested, without regard to their results. Two or more numbers in one place are separate tests of the same structure; such repeats can differ widely.

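Viability assay of Plasmodium falciparum sporozoites; the read-out is not stated. The concentration is filed as 10 mM, unlikely as a test dose, so the dose is not known. Higher reads as lower viability (inferred: compounds with an IC50 in retests scored well above the rest). Strong results were mostly tested again. About 34,000 compounds were tested under these conditions; 0.84% (about 280) showed 50% or more at least once.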

structure | percent effect
C[C@@H]1CN(C(=O)c2cccn2C)C[C@]12CCN(c1ccsc1)C2=O | -2.663
Cc1nc(CC(=O)NCc2csc(N3CCCC3)n2)cs1 | 16.32
O=C(c1cccc(OCc2cscn2)c1)N1CCOCC1 | 4.787
Cc1ccc(C)c(NS(=O)(=O)c2cc3c(c(C(=O)O)c2)OCCO3)c1 | 1.554
Cn1nccc1C(=O)Nc1cc(C(F)(F)F)c[nH]c1=O | 0.7183
CN(CC(=O)NCCC#N)C(c1ccccc1)c1ccccc1 | 4.281
c1cc(-c2n[nH]cc2-c2ccnc(N3CCCC3)n2)ccn1 | -6.689
CC(C)c1cc(C(F)(F)F)n2nc(CCC(=O)O)nc2n1 | 9.423
Cc1nnc(NC(=O)CN2CCOC(Cn3cccn3)C2)s1 (centres unmarked) | 3.567
O=C(O)C(F)(F)F.[H][C@]12CCN(C(=O)c3ccc4[nH]ccc4c3)C[C@@]1([H])OCCN(C)C2 | -2.811
O=C(O)C(F)(F)F.O=C(O)C(F)(F)F.c1ccc(CN2CCCC3(CCN(CC4CCCO4)CC3)C2)nc1 (centres unmarked) | 4.726
Cn1ccnc1COc1ccc(CN2CCN(CCO)CC2)cc1 | -0.8177
Cc1noc(C(C)N2CCN(Cc3ccco3)CC2)n1 (centres unmarked) | -5.117
c1ccc2oc(CCCN3CCOC(Cn4cncn4)C3)nc2c1 (centres unmarked) | 4.66
CSc1ccc(C(=O)N2CC(=O)N(Cc3ccccc3)CC(O)C2)cc1 (centres unmarked) | -11.99
O=C(c1ccc(N2CCCC2)nc1)N1CCCC(n2cncn2)C1 (centres unmarked) | -0.5536
CCC(=O)N1CCc2[nH]cnc2C12CCN(C(=O)c1snnc1C)CC2 | 14.38
CC(=O)NCc1nnc2n1CCN(c1ncnc3c1CCC3)CC2 | -9.236
COc1ccc2c(c1)C(=O)CC1(CCN(Cc3ccc(F)cc3)CC1)O2 | -16.57
c1cnnc(N2CCCC2CNCc2csc(-c3ccco3)n2)c1 (centres unmarked) | 23.4
COc1ccc(S(=O)(=O)NC(=O)COC2CCCCC2)cc1C | -5.465
CN1C(=O)CCC12CCN(Cc1ccco1)CC2 | 9.895
Nc1cc2c(nn1)CCN(C(=O)c1cccc3c1OCCO3)C2 | 1.799
CN(C)CCCNC(=O)C(c1cccc(F)c1)N(C)C (centres unmarked) | 3.421
CN(C)C(=O)c1n[nH]c2c1CN(CC1CCCCC1)C2.O=C(O)C(F)(F)F.O=C(O)C(F)(F)F | 3.293
Cc1cccc(C)c1OCC(=O)NS(=O)(=O)c1c(C)noc1C | 3.028
Cc1nccn1C1CCCN(C(=O)CCCNc2ncccn2)C1 (centres unmarked) | 3.922
Cc1cc(S(=O)(=O)N2CCc3ccc(F)cc32)cc(C(=O)O)c1C | -8.333
N#Cc1ccc(OCC(O)CN2CCC(c3ccn[nH]3)CC2)cc1 (centres unmarked) | 8.511
CC(NC(=O)Cn1cccn1)c1cccnc1 (centres unmarked) | -0.8584
Cc1cc(=O)[nH]c(=O)n1COCc1ccccc1 | 0.8242
CCOCC1CN(S(=O)(=O)CC)Cc2nn(C)cc21 (centres unmarked) | 9.625
Cc1nc(CNC(=O)c2cc(COc3ccccc3)[nH]n2)n[nH]1 | -1.817
CNC(=O)NC(=O)CN(CC(C)O)c1ccccc1 (centres unmarked) | -0.6689
CC(C)c1cc(C(=O)N2CCC3(CC2)c2ccccc2[C@@H](N)[C@@H]3O)cs1 | 0.5325
CCS(=O)(=O)N(C)C(=O)c1cc(C)n(-c2cccc(OC)c2)c1C | -0.2467
CC1(C(N)=O)CCCN(c2cnccn2)C1 (centres unmarked) | -2.026
[H][C@@]12C[C@H](C)O[C@]1([H])CCN(C(=O)c1occc1C)C2 | -4.437
O=C(Cc1cn2ccccc2n1)N1CCCC(n2ccnc2)C1 (centres unmarked) | -1.013
Cc1cnc(CN(C)C2CCN(Cc3nc4ccccc4n3C)C2)o1 (centres unmarked) | 5.392
CC(=O)N1CCCC1c1nc(CN(C)C(=O)C(C)C)cc(N(C)C)n1 (centres unmarked) | -4.566
CN(CC1CCOCC1)C(=O)NCCCN1CCCCC1 | 1.224
COc1ccccc1CNC(=O)C[S+]([O-])Cc1cc(C)on1 (centres unmarked) | -1.757
Cn1ccnc1CN1CCC2(CC1)CC(N1CCCC1)c1ccccc12 (centres unmarked) | 7.626
CC(C(=O)NC1CC1)S(=O)(=O)c1cc2c(cc1Cl)OCCO2 (centres unmarked) | -5.486
O=C(COc1ccc2c(c1)CCC2)N1CCCC(n2cccn2)C1 (centres unmarked) | -1.115
Cc1cc(NC(=O)Cn2cc(C#N)c(=O)c3cc(Br)ccc32)no1 | 17.6
Cc1nccn1-c1cccc(C2CCCN(C(=O)c3cc[nH]n3)C2)n1 (centres unmarked) | 0.4711
CCOc1ccccc1OC1CCN(C(=O)c2csnn2)CC1 | 8.291
Cc1noc(C2CCN(Cc3cc(=O)n(C)c(=O)n3C)CC2)n1 | -15.93
CCC(=O)N1CCC2(COCc3cnc(NCc4ccco4)nc32)C1 (centres unmarked) | 7.456
O=C(O)C(F)(F)F.[H][C@]12CN(CCN(C)C)C(=O)[C@@]1([H])CN(c1ccccc1)C2 | 17.42
CN1CCOC(CNCc2ccccc2OCc2ccccn2)C1 (centres unmarked) | -7.417
Cc1cc(C)c(CNC(=O)N2CCCC2c2ccccc2)c(=O)[nH]1 (centres unmarked) | 3.103
CC1CCN(CCCNS(=O)(=O)c2cccc(F)c2)CC1.Cl | 5.234
Cc1nn(C)c(N2CCOCC2)c1CNC(C)c1cccnc1 (centres unmarked) | -18.81
c1cnc(-c2nc(CNCCn3cccn3)cs2)nc1 | -28.07 & -15.83 & -26.21
CC(C)C1CCCN1CCCc1nc(-c2cccs2)no1 (centres unmarked) | 38.14 & 43.62 & 26.66
COCc1nc(N(C)C)ncc1C(=O)Nc1ccn(C)n1 | -17.98
Cc1ccc(N2CCN(C(=O)COc3ncccn3)CC2)nn1 | 8.269
CC(=O)N1CCC(NC(=O)N(C)Cc2c(C)noc2C)CC1 | 10.32
O=S(=O)(C1CC1)N1Cc2nccn2CC(Cn2cncn2)C1 (centres unmarked) | -3.986
Cc1cn(CC(=O)Nc2cc(C(C)C)nn2C)cn1 | -23.23
NC(=O)NCC1CCCCN1C(=O)c1cccc(Cl)c1 (centres unmarked) | -1.83
O=C(O)C(F)(F)F.O=C(O)C(F)(F)F.[H][C@@]12CN(Cc3ccoc3)C[C@]1([H])C(=O)N(Cc1cccnc1)C2 | 11.45
COc1ccc(CNC(C)c2cccc(Br)c2)c(OC)c1OC.Cl (centres unmarked) | -13.24
Cc1cc2n(n1)CC(CNCc1ccc(-n3cccn3)nc1)CN2 (centres unmarked) | 2.143
Cc1ccc(CNC(=O)c2nn(C)c3c2CS(=O)(=O)CC3)o1 | -27.32 & -30.57
Cc1nc(C)n(C2CCCN(C(=O)c3csc(CC(C)C)n3)C2)n1 (centres unmarked) | 0.06439
CO[C@H]1C[C@@H](O)C12CCN(C(=O)NCc1ccco1)CC2 | 8.391
CN(C)CCn1c(=O)oc2ccc(NC(=O)c3cc(Cl)c[nH]3)cc21 | 1.931
Cc1noc(-c2ccc(N3CCC[C@H]3CO)nc2)n1 | -13.33 & -47.31 & 34.73
Cc1ccc(CNC2CCN(CCc3ccncc3)CC2)s1 | 13.75
O=C(Cn1nc(-c2ccc(F)cc2)oc1=O)NCc1ccc(F)cc1 | 3.133
COCCN1CCC(NCc2cc(F)ccc2F)C1 (centres unmarked) | 5.08
Cc1ncsc1C(=O)NC1CCN(Cc2ccc(C(F)(F)F)cc2)CC1 | 18.57
COCC1CN(Cc2ccoc2)Cc2nn(C)cc21.O=C(O)C(F)(F)F (centres unmarked) | -11.3
COc1cccc(OC)c1CNC(Cc1ccsc1)c1ccc(C)cn1 (centres unmarked) | -24.49
COc1ccc2c(c1)CC(C1CCOCC1)N(C(=O)c1ccnn1C)C2 (centres unmarked) | -4.856
CN1CCN(C[C@@H]2CN(C(=O)c3ccccc3C#N)C[C@@H]2CO)CC1 | 0.104

Some entries from above, unchanged:

{"structure": "Cn1nccc1C(=O)Nc1cc(C(F)(F)F)c[nH]c1=O", "percent effect": 0.7183}
{"structure": "CN(CC(=O)NCCC#N)C(c1ccccc1)c1ccccc1", "percent effect": 4.281}
{"structure": "O=C(Cc1cn2ccccc2n1)N1CCCC(n2ccnc2)C1", "stereo": "centres unmarked", "percent effect": -1.013}
{"structure": "NC(=O)NCC1CCCCN1C(=O)c1cccc(Cl)c1", "stereo": "centres unmarked", "percent effect": -1.83}
{"structure": "Cc1noc(C(C)N2CCN(Cc3ccco3)CC2)n1", "stereo": "centres unmarked", "percent effect": -5.117}
{"structure": "c1cnnc(N2CCCC2CNCc2csc(-c3ccco3)n2)c1", "stereo": "centres unmarked", "percent effect": 23.4}
{"structure": "Cc1ncsc1C(=O)NC1CCN(Cc2ccc(C(F)(F)F)cc2)CC1", "percent effect": 18.57}